# Laboratory results reported in the supplement of paper PMC11348887.
# Structures can show the parent of a compound that is named as a salt. This is one part of the list. Most values lie at the level of the controls, where differences are scatter. Where a SMILES comes first, the peptide text is derived from it. [ ]: non-standard residue; d: D form. Nle = CCCC[CH](N)C(=O)O
# How the values were obtained:
# Conditions in all cases: 5 µM; treatment: days 7-14 after plating, readout day 21
# [1] = tested on: hPSC-derived cortical neurons (WA09); test: nucleus area z-score vs screen plate; higher = larger nuclei (more mature)
# [2] = tested on: hPSC-derived cortical neurons (WA09); test: total neurite length per nucleus (MAP2) z-score; higher = more neurite growth
# [3] = tested on: hPSC-derived cortical neurons (WA09); test: nucleus roundness z-score vs screen plate; higher = rounder nuclei (more mature)
# [4] = tested on: hPSC-derived cortical neurons (WA09); test: KCl-induced FOS+/EGR-1+ double-positive nuclei fraction z-score (KCl minus unstimulated); higher = stronger activity-induced IEG response
SMILES,nucleus area z-score [1],total neurite length per nucleus (z-score) [2],nucleus roundness z-score [3],KCl-induced FOS+/EGR-1+ double-positive nuclei fraction z-score [4]
CCOC(=O)CCC(=O)O[C@H]1[C@H](O[C@@H]2[C@@H](C)[C@H](O[C@H]3C[C@@](C)(OC)[C@@H](O)[C@H](C)O3)[C@@H](C)C(=O)O[C@H](CC)[C@@](C)(O)[C@H](O)[C@@H](C)C(=O)[C@H](C)C[C@@]2(C)O)O[C@H](C)C[C@@H]1N(C)C [Erythromycin Ethylsuccinate],0.697,-0.752,-1.11,-0.524
Oc1ccc(OC2CCCCO2)cc1 (stereo unspecified) [Deoxyarbutin],-0.0951,0.333,0.458,0.145
O=C(O)C1=CO[C@@H](O[C@@H]2O[C@H](CO)[C@@H](O)[C@H](O)[C@H]2O)[C@@H]2C(CO)=CC[C@H]12 [Geniposidic acid],0.105,0.0608,0.14,0.476
COc1cccc(C=NCCN=Cc2cccc(OC)c2[O-])c1[O-].[Cl-].[Mn+3],-0.32,0.483,0.166,-0.0304
O=C(O)c1cc2cccc([N+](=O)[O-])c2[nH]1,0.474,-0.0354,0.315,-0.623
Cc1cc(C)c(/C=C2\C(=O)Nc3ccccc32)[nH]1 [Semaxanib (SU5416)],0.9,-0.845,-0.745,-0.286
CCOC(=O)N1c2ccc(C(F)(F)F)cc2[C@@H](N(Cc2cc(C(F)(F)F)cc(C(F)(F)F)c2)C(=O)OC)C[C@H]1CC [Torcetrapib],0.232,-0.814,-1.31,-0.0738
CS(=O)(=O)c1ccc(C2=C(c3ccccc3)C(=O)OC2)cc1 [Rofecoxib],1.13,1,0.994,1.44
O=c1c(-c2ccc(O)cc2)coc2cc(O)ccc12 [Daidzein],1.03,-0.472,-0.128,1.05
COc1ccc([C@@H]2CC(=O)c3c(O)cc(O[C@@H]4O[C@H](CO[C@@H]5O[C@@H](C)[C@H](O)[C@@H](O)[C@H]5O)[C@@H](O)[C@H](O)[C@H]4O)cc3O2)cc1O [Hesperidin],0.148,0.439,0.489,-0.424
CC(C(=O)O)c1cccc(Oc2ccccc2)c1 (stereo unspecified) [Fenoprofen calcium hydrate],0.336,0.351,0.448,0.13
Nc1nc(NC2CC2)c2ncn([C@H]3C=C[C@@H](CO)C3)c2n1 [Abacavir sulfate],0.864,-0.757,-0.925,-1.05
CC1(C)O[C@@H]2C[C@H]3[C@@H]4CCC5=CC(=O)CC[C@]5(C)[C@@]4(F)[C@@H](O)C[C@]3(C)[C@]2(C(=O)CCl)O1 [Halcinonide],0.0143,-0.293,-0.965,0.0819
O=C1C(O)=C([C@H]2CC[C@H](c3ccc(Cl)cc3)CC2)C(=O)c2ccccc21 [Atovaquone],0.407,-0.161,-0.0739,0.344
CN1CCN(CCCNc2ncc(Cl)c(-c3cc4c(C(=O)NC5CC5)cccc4s3)n2)CC1,-0.457,0.575,0.501,-0.482
CN1CCN(C2CCN(C(=O)Nc3cc(Oc4ccc(NC(=O)C5(C(=O)Nc6ccc(F)cc6)CC5)c(F)c4)ccn3)CC2)CC1 [Golvatinib (E7050)],-3.2,-2.56,-5.2,-0.728
CN1C[C@@H]2C[C@H]1CN2c1cc2c(cc1F)c(=O)c(C(=O)O)cn2C1CC1 [Danofloxacin Mesylate],-0.325,0.0211,1.34,0.191
O=C1c2c(O)ccc(O)c2C(=O)c2c(NCCNCCO)ccc(NCCNCCO)c21 [Mitoxantrone HCl],-5.46,-5.36,1.26,-0.903
O=C(O)c1cc(I)ccc1NC(=O)[C@H](Cc1ccccc1)NCc1ccccc1,2.63,-0.471,0.82,-1.09
COC1(c2sc3c(N4CCOCC4)nc(-c4cnc(N)nc4)nc3c2C)COC1,-1.61,-0.291,-1.77,-1.85
Clc1ccccc1CN1CCc2sccc2C1 [Ticlopidine HCl],-0.33,0.174,0.595,0.215
CNc1nc(Nc2cn(C(C)(C)C#N)nc2C)ncc1C(F)(F)F,0.0916,0.0661,-0.328,1.22
CN(C)CCC=C1c2ccccc2C=Cc2ccccc21 [Cyclobenzaprine HCl],-0.731,-0.85,-0.0555,0.021
O=c1cc(CN2CCOCC2)occ1OCCCCCSc1ccnc2cc(C(F)(F)F)ccc12,0.0598,-0.984,-0.28,-0.197
O=C(Nc1cccc2c(=O)cc(-c3nnn[nH]3)oc12)c1ccc(OCCCCc2ccccc2)cc1 [Pranlukast],0.331,1.09,1.42,4.23
CC(C)(C#N)c1cc(Cn2cncn2)cc(C(C)(C)C#N)c1 [Anastrozole],2.36,0.552,0.297,0.633
Cn1c(=O)c(F)c(Nc2ccc(I)cc2F)c2c(=O)n(C[C@@H](O)CO)cnc21,-5.84,-1.93,-3.46,-0.544

# At a glance, part of the list above.
SMILES,nucleus area z-score [1],total neurite length per nucleus (z-score) [2],nucleus roundness z-score [3],KCl-induced FOS+/EGR-1+ double-positive nuclei fraction z-score [4]
Oc1ccc(OC2CCCCO2)cc1 (stereo unspecified) [Deoxyarbutin],-0.0951,0.333,0.458,0.145
O=C(O)C1=CO[C@@H](O[C@@H]2O[C@H](CO)[C@@H](O)[C@H](O)[C@H]2O)[C@@H]2C(CO)=CC[C@H]12 [Geniposidic acid],0.105,0.0608,0.14,0.476

# Next part

SMILES,nucleus area z-score [1],total neurite length per nucleus (z-score) [2],nucleus roundness z-score [3],KCl-induced FOS+/EGR-1+ double-positive nuclei fraction z-score [4]
COc1cc2c(cc1OCCCN1CCCC1)N=C(N)C21CCC1,0.806,1.15,0.939,-0.0959
O=c1cc(-c2cccc3c2Sc2ccccc2S3)oc(N2CCOCC2)c1,0.567,0.472,0.741,1.38
CCCCCCCC(=O)N[C@H](CN1CCCC1)[C@H](O)c1ccc2c(c1)OCCO2 [Eliglustat Tartrate],-0.0423,1.32,0.511,0.302
CC(C)(O)CNc1ncc(-c2ccnc(Nc3ccnc(Cl)c3)n2)c(CC2CC2)n1,-5.96,-2.42,-6.69,-1.01
CCCSc1nc(N[C@@H]2C[C@H]2c2ccc(F)c(F)c2)c2nnn([C@@H]3C[C@H](OCCO)[C@@H](O)[C@H]3O)c2n1 [Ticagrelor],-0.825,1.34,1.64,-0.271
CCCCC(C=O)NC(=O)C(CC(C)C)NC(=O)C(CC(C)C)NC(C)=O (stereo not drawn) (Ac-Leu-Leu-[Nle]-aldehyde; configuration not given here),-13.9,-5.33,-1.35,-0.973
CO[C@H]1C[C@@H]2CC[C@@H](C)[C@@](O)(O2)C(=O)C(=O)N2CCCC[C@H]2C(=O)O[C@H]([C@H](C)C[C@@H]2CC[C@@H](OCCO)[C@H](OC)C2)CC(=O)[C@H](C)/C=C(\C)[C@@H](O)[C@@H](OC)C(=O)[C@H](C)C[C@H](C)/C=C/C=C/C=C/1C [Everolimus (RAD001)],-3.07,-1.96,-4.92,-0.449
Cc1cnc(-c2cc(N3CCN(C(=O)CCS(C)(=O)=O)CC3)ncc2Cl)c(C)c1,0.3,0.114,0.159,1.94
Cc1cc(C(C)(C)C)cc(C)c1CC1=NCCN1 [Xylometazoline HCl],0.532,-0.289,-0.181,0.495
CCCNS(=O)(=O)Nc1ncnc(OCCOc2ncc(Br)cn2)c1-c1ccc(Br)cc1 [Macitentan],1.55,2.92,1.5,0.0361
COc1ccc(NS(=O)(=O)c2sc3ccc(Cl)cc3c2C)cc1N1CCNCC1,-0.282,0.0202,-0.486,0.294
Cc1ccc(S(=O)(=O)NC(=O)NN2CCCCCC2)cc1 [Tolazamide],2.35,-0.5,0.129,-0.129
CCC[C@@H]1C[C@@H](C(=O)N[C@@H]([C@H]2O[C@H](SC)[C@H](O)[C@@H](O)[C@H]2O)[C@H](C)Cl)N(C)C1 [Clindamycin],-1.86,0.424,-0.0153,-0.303
CC1COc2c(N3CCN(C)CC3)c(F)cc3c(=O)c(C(=O)O)cn1c23 (stereo unspecified) [Ofloxacin],0.407,1.56,1.14,-0.709
CC(C)(C)NCC(O)COc1cccc2c1CCC(=O)N2 (stereo unspecified) [Carteolol HCl],0.139,0.469,0.329,0.0221
CCn1c(=O)c2c(nc(/C=C/c3ccc(OC)c(OC)c3)n2C)n(CC)c1=O [Istradefylline],-0.0278,0.586,0.884,1.41
CCOc1ccc2ccccc2c1C(=O)N[C@@H]1C(=O)N2[C@@H]1SC(C)(C)[C@@H]2C(=O)O [Nafcillin Sodium],-0.0457,-0.661,-0.507,-0.486
COc1ccc(C(=O)C2CCN(CC(=O)N(Cc3nc4c(c(=O)[nH]3)COCC4)CC3CC3)CC2)cc1,-3.08,-2.74,-0.327,0.0822
Nc1ncnc2c1c(I)cn2[C@@H]1O[C@H](CO)[C@@H](O)[C@H]1O [5-Iodotubercidin],-2.73,-1.83,-4.1,-1.04
CC(C)(C)c1cc(NC(=O)Nc2ccc(-c3cn4c(n3)sc3cc(OCCN5CCOCC5)ccc34)cc2)no1 [Quizartinib (AC220)],-0.413,-0.142,-4.45,1.63
OCc1ccc(O[C@@H]2O[C@H](CO)[C@@H](O)[C@H](O)[C@H]2O)cc1 [Gastrodin],-0.0379,-0.651,-0.738,-0.453
Cc1c(C(=O)Nc2ccc(Oc3ccnc4[nH]cc(-c5ccccc5)c34)c(F)c2)c(=O)n(-c2ccc(F)cc2)n1C,1.49,1.56,1.94,0.965
Cc1cc(/C=C2/SC(=S)NC2=O)c(C)n1-c1cccnc1 [Optovin],0.84,-0.513,-0.348,-1.18
O=c1[nH]nc(Sc2ncc([N+](=O)[O-])s2)n1-c1ccc2c(c1)OCCO2,-19,-6.89,-3.98,-0.931
COc1cc(OCc2cccc(-c3ccccc3)c2C)cc(OC)c1CN1CCCC[C@H]1C(=O)O [PD-1/PD-L1 inhibitor 1],-0.255,0.767,1.02,1.67
CC1=CC(=O)NS(=O)(=O)O1 [Acesulfame Potassium],0.709,0.379,0.257,1.13
CN(C)/N=N/c1[nH]cnc1C(N)=O [Dacarbazine],0.731,-0.321,-0.132,0.441
